The other results are listed elsewhere or left out.
Compound: CC1Cc2ccccc2N1C(=O)C1CCCN(C1)C(=O)CCl (mixture of isomers) [TRIM25 ligand 11 (diastereomer mixture)]
Test: probe-labelled cysteine peptide fold change vs DMSO (competition) (log2 fold change); higher = less target engagement (more negative = stronger competition)
Details: 10 µM; THP-1; incubation time: 4 h
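Note: competitive chemoproteomic profiling in live THP-1 cells with an iodoacetamide desthiobiotin (IA-DTB) probe, comparing probe-labelled peptide intensities in compound-treated cells against DMSO-treated controls.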

Q: “EIF3M_Q7L2H7_52_GAEISEENSEGGLHVDLAQIIEACDVCLK (UniProt Q7L2H7)” was tested. Which “probe-labelled cysteine peptide fold change” value did it give?
A: -0.0739

Q: Which “probe-labelled cysteine peptide fold change” value does the source give for “EML4_Q9HC35_820_VHLFQYPCSK (UniProt Q9HC35)” here?
A: -0.00112

Q: “ERAP1_Q9NZ08_907_CVQQTIETIEENIGWMDK (UniProt Q9NZ08)” was tested. Which “probe-labelled cysteine peptide fold change” value did it give?
A: -0.0372

Q: How did the “probe-labelled cysteine peptide fold change” value turn out when “ELP5_Q8TE02_151_LPCTTLCQVLHAVSHQDSCPGDSSSVGK (UniProt Q8TE02)” was run?
A: 0.0565

Q: For “ERAP1_Q9NZ08_743_SQLLLLACVHNYQPCVQR (UniProt Q9NZ08)”, which “probe-labelled cysteine peptide fold change” value is on record?
A: 0.123

Q: “EIF4G3_O43432_928+930_NHDEESLECLCR (UniProt O43432)” was tested. Which “probe-labelled cysteine peptide fold change” value did it give?
A: 0.099

Q: With “EML4_Q9HC35_428_TTNEVVLAVEFHPTDANTIITCGK (UniProt Q9HC35)” as the target, how does the “probe-labelled cysteine peptide fold change” value read?
A: 0.105

Q: “EIF4B_P23588_457_SLENETLNKEEDCHSPTSKPPKPDQPLK (UniProt P23588)” was tested. Which “probe-labelled cysteine peptide fold change” value did it give?
A: -0.163

Q: Which “probe-labelled cysteine peptide fold change” value does the source give for “EP400_Q96L91_879_EIECFWSNIEQVVEIK (UniProt Q96L91)” here?
A: -0.322

Q: How did the “probe-labelled cysteine peptide fold change” value turn out when “EPM2AIP1_Q7L775_465_IFDPDRYQMVICR (UniProt Q7L775)” was run?
A: -0.0236

Q: With “ENOPH1_Q9UHY7_202_KIADSIGCSTNNILFLTDVTR (UniProt Q9UHY7)” as the target, how does the “probe-labelled cysteine peptide fold change” value read?
A: -0.259

Q: Which “probe-labelled cysteine peptide fold change” value does the source give for “EML3_Q32P44_310_CLAVHPDGVR (UniProt Q32P44)” here?
A: -0.0769

Q: For “EPB41L2_O43491_424_LGVCANGLLIYK (UniProt O43491)”, which “probe-labelled cysteine peptide fold change” value is on record?
A: -0.0375

Q: Which “probe-labelled cysteine peptide fold change” value does the source give for “EIF4B_P23588_457_EEDCHSPTSKPPKPDQPLK (UniProt P23588)” here?
A: 0.117

Q: With “ELF2_Q15723_348_NSSPINCSR (UniProt Q15723)” as the target, how does the “probe-labelled cysteine peptide fold change” value read?
A: -0.123

Q: For “ELAC2_Q9BQ52_670_VVYSGDTMPCEALVR (UniProt Q9BQ52)”, which “probe-labelled cysteine peptide fold change” value is on record?
A: 0.0718

Q: Which “probe-labelled cysteine peptide fold change” value does the source give for “ENG_P17813_516_GNCVSLLSPSPEGDPR (UniProt P17813)” here?
A: -0.00348

Q: Which “probe-labelled cysteine peptide fold change” value does the source give for “EIF5B_O60841_635_LRAPIICVLGHVDTGK (UniProt O60841)” here?
A: -0.0665

Q: With “EPB41L1_Q9H4G0_111_VTLLDASEYECEVEK (UniProt Q9H4G0)” as the target, how does the “probe-labelled cysteine peptide fold change” value read?
A: -0.0627

Q: Which “probe-labelled cysteine peptide fold change” value does the source give for “ENO1_P06733_337_SCNCLLLK (UniProt P06733)” here?
A: -0.0518

Q: For “ELF2_Q15723_110_TIEAAEALLHMESPTCLR (UniProt Q15723)”, which “probe-labelled cysteine peptide fold change” value is on record?
A: -0.0447

Q: For “EPRS_P07814_92_LSSCDSFTSTINELNHCLSLR (UniProt P07814)”, which “probe-labelled cysteine peptide fold change” value is on record?
A: 0.208

Q: “EIF4G3_O43432_928_NHDEESLECLCR (UniProt O43432)” was tested. Which “probe-labelled cysteine peptide fold change” value did it give?
A: 0.179

Q: “EML2_O95834_395_AQFVTCGQDK (UniProt O95834)” was tested. Which “probe-labelled cysteine peptide fold change” value did it give?
A: 0.034

Q: How did the “probe-labelled cysteine peptide fold change” value turn out when “ELAC1_Q9H777_266_LCFEADLLIHEATLDDAQMDK (UniProt Q9H777)” was run?
A: -0.0858

Q: Which “probe-labelled cysteine peptide fold change” value does the source give for “EMG1_Q92979_134_FCGLMVQLLHK (UniProt Q92979)” here?
A: -0.0081

Q: Which “probe-labelled cysteine peptide fold change” value does the source give for “ELF2_Q15723_591_TEGLVTCEK (UniProt Q15723)” here?
A: -0.0654

Q: “EIF3M_Q7L2H7_175_LLYEALVDCK (UniProt Q7L2H7)” was tested. Which “probe-labelled cysteine peptide fold change” value did it give?
A: 0.13

Q: Which “probe-labelled cysteine peptide fold change” value does the source give for “EIF5A2_Q9GZV4_22_ADEIDFTTGDAGASSTYPMQCSALRK (UniProt Q9GZV4)” here?
A: -0.201

Q: Which “probe-labelled cysteine peptide fold change” value does the source give for “EPRS_P07814_105_LSSCDSFTSTINELNHCLSLR (UniProt P07814)” here?
A: 0.47

Q: For “ELP1_O95163_744_EAFECMR (UniProt O95163)”, which “probe-labelled cysteine peptide fold change” value is on record?
A: -0.186

Q: “EIPR1_Q53HC9_95_VLTCAAVWR (UniProt Q53HC9)” was tested. Which “probe-labelled cysteine peptide fold change” value did it give?
A: 0.109

Q: How did the “probe-labelled cysteine peptide fold change” value turn out when “ELANE_P08246_254_SEDNPCPHPRDPDPASR (UniProt P08246)” was run?
A: -0.0641

Q: “ENOSF1_Q7L5Y1_330_ALQFLQIDSCR (UniProt Q7L5Y1)” was tested. Which “probe-labelled cysteine peptide fold change” value did it give?
A: -0.0652

Q: With “EPS15_P42566_824_EKDPEIFCDPFTSATTTTNK (UniProt P42566)” as the target, how does the “probe-labelled cysteine peptide fold change” value read?
A: -0.0973

Q: How did the “probe-labelled cysteine peptide fold change” value turn out when “ELP2_Q6IA86_14_VAPVLETSHVFCCPNR (UniProt Q6IA86)” was run?
A: 0.0335
